# PubChem BioAssay AID602196 – INSERM – 2012
# Screen: 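Modifiers of cisplatin sensitivity in A549 cells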
# Cell system: human A549 lung cancer cells
# Reagents: siRNA pair against human genes
# Timing: 48 h transfection before cisplatin; time from cisplatin to read-out not stated
# Conditions: cisplatin at a dose killing half of control-siRNA cells; exact dose and duration not given
# Measurement: 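Cisplatin cell death as a shift from the 50% death seen with control siRNA; siRNAs toxic or growth-blocking alone scored 0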
# Scale: two-siRNA summed score (-2 to +2): higher = both siRNAs protect from cisplatin killing; -2 means both sensitise; mean protection from cisplatin (shift in death) and protection from cisplatin (shift in death), siRNA C and protection from cisplatin (shift in death), siRNA D: higher = protection from cisplatin killing
# Call rule: 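siRNAs harmful alone (LDH or WST-1) get 0; others get +1 for less and -1 for more cisplatin killing; genes are active when the two siRNAs give the same sign, summing to ±2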
# Meaning of the calls: active = both siRNAs shift cisplatin killing the same way; inactive = no consistent shift, or siRNA harmful alone
# Shown is an unselected part of about 23,000 reagents tested. 455 of them (2%) were called active. 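Active includes both protection and sensitisation; some change values fall well beyond the stated -50 to +50 range.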 The numbers tell different reagents against one gene apart. Not stated in the record: the amount of reagent.
Gene,reagent,two-siRNA summed score (-2 to +2),mean protection from cisplatin (shift in death) (%),"protection from cisplatin (shift in death), siRNA C (%)","protection from cisplatin (shift in death), siRNA D (%)",Outcome
CRX (cone-rod homeobox),1,0,-16.9,-32.6,-1.2,inactive
TMEM164 (transmembrane protein 164),1,0,7.3,10,4.6,inactive
OR10G4 (olfactory receptor family 10 subfamily G member 4),1,1,8.1,-1,17.1,inactive
FAM117B (family with sequence similarity 117 member B),1,0,2.7,0.4,5,inactive
CWC15 (CWC15 spliceosome associated protein),1,-1,-11.5,-16,-6.9,inactive
LOC387930,1,0,15.9,8.1,23.6,inactive
LOC441498,1,1,8.1,1.1,15.2,inactive
SLC22A14,1,-1,0.9,25.3,-23.4,inactive
DBR1 (debranching RNA lariats 1),1,0,-0.4,3.9,-4.8,inactive
LOC441864,1,0,19.6,7.3,31.9,inactive
OR7G2 (olfactory receptor family 7 subfamily G member 2),1,0,0.9,5.6,-3.7,inactive
ATXN1 (ataxin 1),1,0,6.4,11,1.8,inactive
RNF157 (ring finger protein 157),1,0,2.2,4.3,0.2,inactive
LOC441621,1,0,3.7,1,6.3,inactive
TSPAN8 (tetraspanin 8),1,0,-3.8,-8.7,1.2,inactive
PLCB3 (phospholipase C beta 3),1,0,18.8,0.3,37.2,inactive
WDR91 (WD repeat domain 91),1,0,10.7,14.4,6.9,inactive
LRTM1 (leucine rich repeat transmembrane protein 1),1,0,4,-3.5,11.4,inactive
CA5BP1 (carbonic anhydrase 5B pseudogene 1),1,0,19,30.8,7.2,inactive
HACL1 (2-hydroxyacyl-CoA lyase 1),1,0,-2.8,4.9,-10.4,inactive
NKAPP1 (NFKB activating protein pseudogene 1),1,0,-3.4,8.2,-14.9,inactive
PDXK (pyridoxal kinase),1,1,27.2,53.1,1.2,inactive
PDXK (pyridoxal kinase),2,2,28,28.3,27.8,active
GAK (cyclin G associated kinase),1,0,5.7,-2.4,13.9,inactive
ARHGEF1 (Rho guanine nucleotide exchange factor 1),1,0,3.3,7.5,-0.9,inactive
CKAP2 (cytoskeleton associated protein 2),1,-2,-32.4,-42.2,-22.5,active
GAS2L1 (growth arrest specific 2 like 1),1,0,9.7,0,19.4,inactive
PPP1R13B-DT (PPP1R13B divergent transcript),1,0,4.9,12,-2.2,inactive
NEUROD2 (neuronal differentiation 2),1,1,5.4,-7.8,18.6,inactive
LOC441485,1,0,3.1,-5.7,11.9,inactive
LOC440442,1,2,14.5,15.4,13.6,active
FBXL13 (F-box and leucine rich repeat protein 13),1,-1,2.2,-11.1,15.4,inactive
UQCRC1 (ubiquinol-cytochrome c reductase core protein 1),1,0,-3,-7.3,1.4,inactive
"FLI1 (Fli-1 proto-oncogene, ETS transcription factor)",1,-1,-16.7,-15.4,-18,inactive
"WIPI1 (WD repeat domain, phosphoinositide interacting 1)",1,0,4.5,9.3,-0.3,inactive
HBG1 (hemoglobin subunit gamma 1),1,0,10.3,11.3,9.4,inactive
LRRC56 (leucine rich repeat containing 56),1,0,0.3,0.2,0.5,inactive
CHERP (calcium homeostasis endoplasmic reticulum protein),1,1,10.4,11.6,9.1,inactive
"SEC31B (SEC31 homolog B, COPII component)",1,2,23.2,23.7,22.8,active
FOXP4 (forkhead box P4),1,-1,-13.7,-17.7,-9.6,inactive
FOXP4 (forkhead box P4),2,-1,-9.9,-6.4,-13.4,inactive
PLAG1 (PLAG1 zinc finger),1,0,2,-5.1,9.2,inactive
LYRM7 (LYR motif containing 7),1,1,13.4,15.6,11.3,inactive
LOC340529,1,0,-2.8,-22.7,17.1,inactive
SH3BGRL2 (SH3 domain binding glutamate rich protein like 2),1,0,3.2,14.5,-8.1,inactive
LOC442625,1,0,9.4,13.3,5.5,inactive
ZIC5 (Zic family zinc finger 5),1,0,8.9,13.4,4.5,inactive
LOC388545,1,0,4.3,3.4,5.1,inactive

Records listed so far whose target name begins with T or t:
Gene,reagent,two-siRNA summed score (-2 to +2),mean protection from cisplatin (shift in death) (%),"protection from cisplatin (shift in death), siRNA C (%)","protection from cisplatin (shift in death), siRNA D (%)",Outcome
TMEM164 (transmembrane protein 164),1,0,7.3,10,4.6,inactive
TSPAN8 (tetraspanin 8),1,0,-3.8,-8.7,1.2,inactive

The listing continues.
Gene,reagent,two-siRNA summed score (-2 to +2),mean protection from cisplatin (shift in death) (%),"protection from cisplatin (shift in death), siRNA C (%)","protection from cisplatin (shift in death), siRNA D (%)",Outcome
CEP192 (centrosomal protein 192),1,1,20.5,28.6,12.4,inactive
LOC389768,1,0,29.8,0.2,59.5,inactive
ZNF740 (zinc finger protein 740),1,0,-8.9,-10.4,-7.5,inactive
WASHC4 (WASH complex subunit 4),1,1,10.4,7.6,13.2,inactive
LHX3 (LIM homeobox 3),1,-1,-6.6,-23.5,10.3,inactive
"B4GALT1 (beta-1,4-galactosyltransferase 1)",1,1,1.6,8.1,-5,inactive
PINX1 (PIN2 (TERF1) interacting telomerase inhibitor 1),1,0,0,-2.8,2.9,inactive
NPTX2 (neuronal pentraxin 2),1,0,0.1,10.9,-10.8,inactive
CRMP1 (collapsin response mediator protein 1),1,0,24.2,16.6,31.8,inactive
CRMP1 (collapsin response mediator protein 1),2,1,23.1,20,26.2,inactive
LOC441577,1,0,10.7,12.2,9.3,inactive
A2M (alpha-2-macroglobulin),1,-1,-3.8,-17.4,9.8,inactive
A2M (alpha-2-macroglobulin),2,0,-0.7,0,-1.3,inactive
LOC286441,1,0,-3.9,-7.6,-0.1,inactive
LOC442683,1,0,14.9,10.1,19.8,inactive
DEF8 (differentially expressed in FDCP 8 homolog),1,0,6.7,6.2,7.2,inactive
CD5L (CD5 molecule like),1,0,-14.6,-7.3,-22,inactive
RPL24 (ribosomal protein L24),1,0,19.3,16.1,22.4,inactive
PPIAP87 (peptidylprolyl isomerase A pseudogene 87),1,0,3.3,-2.7,9.3,inactive
FCRLA (Fc receptor like A),1,0,-5.6,-7.4,-3.7,inactive
SOAT2 (sterol O-acyltransferase 2),1,0,9.7,7.5,11.9,inactive
LOC388623,1,0,3.7,7.1,0.2,inactive
PKD1,1,-1,9.1,-19.9,38.2,inactive
TICAM1 (TIR domain containing adaptor molecule 1),1,0,-0.6,8.7,-10,inactive
PDCD2L (programmed cell death 2 like),1,0,3.6,8.5,-1.4,inactive
